This assay can be described thus: qHTS Assay for Lipid Storage Modulators in Drosophila S3 Cells.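 For cell number change: cells counted by Cell Tracker Red CMTPX staining in the red channel.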 The note with it: BODIPY lipid droplet fluorescence, 18-24 h; for cell number change: measured here: cell count max response, cells fed with added oleic acid. The method in brief: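 Drosophila S3 cells got compounds at several concentrations plus oleic acid (400 uM solution). Laser-scanning cytometry with 488 nm excitation read lipid droplets at 500-530 nm and cells at 575-640 nm. Percent activity was relative to 20 uM Triacsin C.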

The mark [1] stands for this setting: measured here: cell number channel AC50, cells fed with added oleic acid.
[2] abbreviates: measured here: lipid fluorescence (Fed channel) AC50, cells fed with added oleic acid.

The other results are listed elsewhere or left out. The main result of the screen is listed elsewhere. These columns were measured beside it and carry no call. Compounds called inactive in the main read-out are mostly missing here. Potencies come from curve fits of mixed quality, noted in brackets.

As a reminder, the AC50 is the concentration giving half of the maximal activity seen. As for `COC(=O)Cn1c(C)c(/C=C/c2cc[n+](C)cc2)c2ccccc21`, the cell number change is -79.1%. For the same compound, the AC50 under setting [1] is 20.6 µM [falling, single point].
For the compound `COc1cc(/C=C/C(=O)OCC(=O)Nc2ccc(S(=O)(=O)N3CCCC3)cc2)ccc1O`, the cell number change was determined as 23.1%. For the same compound, the AC50 under setting [2] is 20.6 µM [rising, single point].
As to `O=c1oc2ccccc2c(Nc2ccc3ccccc3c2)c1[N+](=O)[O-]`, the cell number change was -1.92%.
As to `Cc1ccc2c(Cl)c(C(=O)NCC(c3ccco3)N3CCCC3)sc2c1` (configuration not stated), the cell number change worked out at 30.3%. Moreover, under setting [1], the AC50 was 0.291 µM [rising, full curve].
Consider `CCCn1c(C)cc(/C=C(\C#N)C(=O)OCC(=O)Nc2cccc(S(N)(=O)=O)c2)c1C`, for which the cell number change is -4.95%. In addition, the AC50 under setting [2] was 6.51 µM [rising, single point].
With `Cc1ccc(Nc2nc(-c3ccccc3)cs2)nc1`, the cell number change was 22.5%.
With `COc1ccccc1OCc1nnc(SCC(=O)N2CCCCC2)o1`, the cell number change came to 15.7%. The concentration at half-maximal activity (AC50) under setting [2] is 2.31 µM [rising, partial curve].
On to `Nc1cc(=O)[nH]c(SCC(=O)Nc2ccc3c(c2)CCC3)n1`, for which the cell number change came to 27.4%. The AC50 under setting [1] is 0.231 µM [rising, partial curve]. Besides, the concentration at half-maximal activity (AC50) under setting [2] was 0.116 µM [rising, full curve, poor fit].
As for `O=C(c1ccc2c(c1)OCCO2)N1CCN(c2ncc(C(F)(F)F)cc2Cl)CC1`, the cell number change was determined as 24.1%. Further, under setting [1], the AC50 is 4.11 µM [rising, full curve, poor fit].
Regarding `O=C(O)c1ccccc1SCC(=O)N1CCCCC1`, the cell number change was -33.7%. Under setting [1], the AC50 was 1.03 µM [falling, full curve]. Moreover, the AC50 under setting [2] was 20.6 µM [falling, partial curve].
As for `c1ccc(CCc2nc(-c3ccc(-n4cccc4)cc3)no2)cc1`, the cell number change was 15.3%.
As for `O=C(CCc1nc2ccccc2[nH]c1=O)OCC(=O)c1cccc2ccccc12`, the AC50 under setting [2] was 29.1 µM [rising, partial curve, poor fit].
`O=C(c1ccco1)N(CC1CCCO1)c1nc(-c2ccccc2)cs1` (configuration not stated): the cell number change is 4.2%. In addition, the AC50 under setting [2] is 0.13 µM [rising, full curve, poor fit].
On to `Cc1ccc(NC(=O)CC2S/C(=N/c3nccs3)N(C)C2=O)cc1C` (configuration not stated), for which the cell number change was 27.8%. Under setting [1], the AC50 was 2.59 µM [rising, full curve, poor fit]. Moreover, the AC50 under setting [2] was 0.291 µM [rising, partial curve, poor fit].
Turning to `NS(=O)(=O)c1ccc(S(=O)(=O)N2CCCC2)cc1`, the cell number change turned out to be 20%. Further, the AC50 under setting [2] is 23.1 µM [falling, single point].
Consider `CCOC(=O)c1c(CS(=O)(=O)c2ccccc2)n(C)c2cc(Br)c(O)cc12`, for which the cell number change is -23.9%. For the same compound, the AC50 under setting [1] was 3.26 µM [falling, full curve, poor fit].
For the compound `O=C1OC(c2ccco2)=N/C1=C\c1ccc(-c2cccc(C(F)(F)F)c2)o1`, the cell number change is -18.9%. For the same compound, the AC50 under setting [1] was 3.66 µM [rising, partial curve]. Moreover, the AC50 under setting [2] was 0.291 µM [rising, full curve].
As to `N#Cc1ccccc1NC(=O)COC(=O)C1CCN(C(=O)c2ccc(Cl)cc2)CC1`, the cell number change was -45.6%. Further, the AC50 under setting [1] is 14.6 µM [falling, partial curve, poor fit]. The AC50 under setting [2] was 0.164 µM [falling, full curve].
As for `CCOC(=O)C1=C(C)NC2=C(C(=O)c3ccccc32)C1c1cccnc1` (configuration not stated), the cell number change was -13.7%.
Regarding `CCN(CC)S(=O)(=O)N1CCC(C(=O)NC(C)CCc2ccccc2)CC1` (configuration not stated), the cell number change was -0.558%.
For the compound `COc1ccc(OCC(=O)Nc2ccc(C(=O)Nc3ccccc3C(=O)O)cc2)cc1`, the cell number change was -15.3%. The AC50 under setting [2] was 29.1 µM [rising, single point].
For the compound `COc1cccc(NC(=O)CN(C)C(=O)c2ccccc2Sc2ccccc2C#N)c1`, the cell number change turned out to be 27.9%. The AC50 under setting [2] was 6.51 µM [falling, single point].
In the case of `CCCCN(C(=O)c1cccc(-n2cccc2)c1)c1c(N)n(Cc2ccccc2)c(=O)[nH]c1=O`, the cell number change is -17.2%.
Regarding `CC1(C)CC(=O)c2sc(N3CCCCC3)nc2C1`, the cell number change was found to be 31.6%. Moreover, the AC50 under setting [1] was 14.6 µM [rising, single point]. For the same compound, the AC50 under setting [2] is 0.092 µM [falling, single point].
In the case of `O=c1[nH]c2ccc(Cl)cc2c(-c2ccccc2)c1N1CCN(CCO)CC1`, the cell number change turned out to be 10.3%.
For the compound `COc1ccc(N2C(=O)C(Cl)=C(Oc3cccc(OC)c3)C2=O)cc1`, the cell number change is -24.2%. Besides, the AC50 under setting [1] is 6.51 µM [falling, single point]. Under setting [2], the AC50 is 29.1 µM [falling, single point].
Turning to `CC1=C(C(=O)OCC2CCCO2)C(c2ccc(C)o2)C2=C(CC(c3ccc(N(C)C)cc3)CC2=O)N1` (configuration not stated), the cell number change came to 33.7%. The AC50 under setting [1] is 1.84 µM [rising, partial curve]. Besides, under setting [2], the AC50 is 1.3 µM [rising, partial curve].
With `C=CCN(C(=O)c1csnn1)C(C(=O)NC1CCCCC1)c1ccccc1F` (configuration not stated), the AC50 under setting [2] is 16.4 µM [falling, partial curve].
On to `O=C(NCCc1ccc2c(c1)OCCO2)c1cccc(F)c1`, for which the AC50 reads like this: under setting [1], 3.66 µM [rising, single point]; under setting [2], 0.206 µM [falling, full curve, poor fit].
In the case of `COC(=O)C1=C(C)N(CCc2ccccc2)C(=O)C1`, the cell number change is -14.1%. Moreover, the AC50 under setting [2] is 1.16 µM [falling, single point].
For the compound `COc1ccc(-c2cc(=O)oc3cc(OCC(=O)NCCCn4ccnc4)ccc23)cc1`, the cell number change was -12.8%. Under setting [2], the AC50 was 8.2 µM [falling, partial curve, poor fit].
`C#CCOc1c(Br)cc(/C=C2/C(=O)ON=C2C)cc1OCC`: the cell number change is 25.4%. For the same compound, the AC50 under setting [2] is 4.61 µM [rising, partial curve].
In the case of `COc1cc2cc(C(c3nnnn3Cc3ccc(F)cc3)N3CCCCCC3)c(=O)[nH]c2cc1OC` (configuration not stated), the cell number change is -4.76%. The AC50 under setting [2] is 0.92 µM [rising, full curve, poor fit].
`O=C(c1ccc(COc2ccccc2Br)o1)N1N=C(C(F)F)CC1(O)C(F)F` (configuration not stated): the cell number change is -71%. For the same compound, under setting [1], the AC50 is 20.6 µM [falling, single point]. Moreover, under setting [2], the AC50 was 29.1 µM [falling, single point].
`CCn1cc(C(=O)NCc2ccc3c(c2)OCO3)c(=O)c2cc(F)c(N3CCN(C(=O)c4ccco4)CC3)cc21`: the cell number change is -9.93%. Moreover, the AC50 under setting [2] is 0.461 µM [rising, partial curve, poor fit].
With `COc1cccc(/C=N/NC(=O)C(=O)NCc2ccco2)c1O`, the cell number change is -11.3%. In addition, the AC50 under setting [2] was 0.58 µM [falling, single point].
